Values from PubChem BioAssay AID602196 (INSERM, 2012).
In all, the deposit lists about 23,000 reagents; this is an unselected part. Over the whole deposit, 455 (2%) got an active call. 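Active includes both protection and sensitisation; some change values fall well beyond the stated -50 to +50 range.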 Reagents against one gene are numbered here. Not given: the amount of reagent.

- Screen: 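Genes whose knock-down alters cisplatin killing of lung cancer cells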
- System: human A549 lung cancer cells
- Reagents: siRNA pair against human genes
- Time to read-out: 48 h transfection before cisplatin; time from cisplatin to read-out not stated
- Challenge: cisplatin at a dose killing half of control-siRNA cells; exact dose and duration not given
- Measured: 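Shift in cisplatin death relative to control siRNA, from -50 (all cells die) to +50 (no cells die); siRNAs harmful on their own scored 0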
- Scale: two-siRNA summed score (-2 to +2): higher = both siRNAs protect from cisplatin killing; -2 means both sensitise; mean protection from cisplatin (shift in death) and protection from cisplatin (shift in death), siRNA C and protection from cisplatin (shift in death), siRNA D: higher = protection from cisplatin killing
- Rule for the call: 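siRNAs harmful alone (LDH or WST-1) get 0; others get +1 for less and -1 for more cisplatin killing; genes are active when the two siRNAs give the same sign, summing to ±2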
- Meaning of the calls: active = both siRNAs shift cisplatin killing the same way; inactive = no consistent shift, or siRNA harmful alone

no.	target	reagent	two-siRNA summed score (-2 to +2)	mean protection from cisplatin (shift in death) (%)	protection from cisplatin (shift in death), siRNA C (%)	protection from cisplatin (shift in death), siRNA D (%)	Outcome
1	LOC390896	1	1	8.4	18.9	-2.2	inactive
2	PDIA2	1	0	13.4	-2.2	29	inactive
3	LOC441254	1	0	3.5	7.4	-0.3	inactive
4	NFATC4	1	-1	-13.7	-5.7	-21.8	inactive
5	APOBEC3D	1	0	8.6	10.2	7	inactive
6	ADIPOR1	1	-1	-23	-15.2	-30.9	inactive
7	LOC400163	1	0	-4.6	-10.2	1	inactive
8	DESI1	1	1	11.7	0.1	23.3	inactive
9	ADPRM	1	0	-0.1	12	-12.1	inactive
10	CD109	1	1	9.4	14.7	4.1	inactive
11	IL10RB	1	0	-1.3	0.1	-2.7	inactive
12	FPR2	1	0	5.5	7.7	3.4	inactive
13	COX5A	1	0	-6.6	-5.5	-7.7	inactive
14	POLR2A	1	0	-6.9	3.4	-17.3	inactive
15	RD3	1	1	17.8	15.3	20.4	inactive
16	LOC442230	1	0	8.2	15.2	1.3	inactive
17	LOC440623	1	1	16.4	24.9	7.9	inactive
18	ELOVL3	1	0	3.5	0.4	6.7	inactive
19	LOC146439	1	0	-1.2	-8.3	6	inactive
20	OR6V1	1	-1	-1.8	6	-9.6	inactive
21	FLJ12649	1	0	7.9	3.1	12.6	inactive
22	LINC00472	1	0	6.3	1.6	11	inactive
23	MOS	1	0	-0.5	11.8	-12.9	inactive
24	CD2AP	1	-1	-19.5	-6.2	-32.7	inactive
25	B3GNT5	1	0	1.3	-0.8	3.5	inactive
26	HLA-E	1	-1	13	33.5	-7.5	inactive

Next part (3 carried over from the part before).
no.	target	reagent	two-siRNA summed score (-2 to +2)	mean protection from cisplatin (shift in death) (%)	protection from cisplatin (shift in death), siRNA C (%)	protection from cisplatin (shift in death), siRNA D (%)	Outcome
24	CD2AP	1	-1	-19.5	-6.2	-32.7	inactive
25	B3GNT5	1	0	1.3	-0.8	3.5	inactive
26	HLA-E	1	-1	13	33.5	-7.5	inactive
27	LOC401616	1	0	1.6	-7.3	10.6	inactive
28	CADM2	1	1	18.5	37	0	inactive
29	OR52L1	1	2	21.5	16.2	26.8	active
30	OR52B6	1	0	-0.2	1.1	-1.6	inactive
31	LOC196541	1	0	8.9	16.6	1.3	inactive
32	TEK	1	1	15.5	29.1	1.9	inactive
33	LOC93082	1	0	-11.8	-12.2	-11.4	inactive
34	LOC283331	1	0	3.3	6.7	-0.1	inactive
35	ANAPC1	1	0	20.1	4.7	35.4	inactive
36	EPS8L2	1	-1	-16.9	-30.4	-3.4	inactive
37	LOC440054	1	0	-3.1	-7.1	0.9	inactive
38	NLGN1	1	0	3.7	-2.3	9.8	inactive
39	EXOC6B	1	0	9.2	10.6	7.7	inactive
40	DLGAP1	1	0	3.3	15.7	-9.1	inactive
41	DAXX	1	1	7.2	17.2	-2.9	inactive
42	PSMA8	1	-1	-3.1	33.5	-39.7	inactive
43	LOC388173	1	1	2.8	-13.9	19.5	inactive
44	KMO	1	-1	-12.9	-15	-10.8	inactive
45	UNC45A	1	0	17.2	19.6	14.8	inactive
46	CEP15	1	0	7.2	5.9	8.5	inactive
47	YPEL4	1	-1	-9.8	-1.5	-18.2	inactive
48	PTCHD4	1	0	9	14.5	3.5	inactive
49	TRIM48	1	0	26	17.7	34.2	inactive
50	TMEM17	1	0	5.6	14.9	-3.8	inactive
51	DVL3	1	0	-9.3	-7.1	-11.4	inactive
52	INF2	1	0	-1.5	-12.6	9.5	inactive
53	INF2	2	0	-0.2	-11.8	11.4	inactive
54	LPAR4	1	-1	-14	-9.1	-19	inactive
55	LOC391205	1	0	22.2	39.6	4.7	inactive
56	ARHGEF19	1	0	5.5	-4.2	15.2	inactive
57	CHSY1	1	0	13.2	7.1	19.2	inactive
